According to the supplement of paper PMC10331698:
± gives the standard deviation of the averaged measurements. Small differences around the control level are noise.

Tests used:
Test in all cases: level (log10 ratio to DMSO vehicle control); higher = higher biomarker level / cell amount than vehicle control
Perfluoro-1-iodohexane = compound: FC(F)(F)C(F)(F)C(F)(F)C(F)(F)C(F)(F)C(F)(F)I [Perfluoro-1-iodohexane]; conditions: in DMSO
Procedure: (§1)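 BioMAP Diversity Plus panel of 12 human primary cell co-culture systems (3C, 4H, LPS, SAg, BT, BF4T, BE3C, CASM3C, HDF3CGF, KF3CT, MyoF, Mphg). Compounds were added 1 h before stimulation and left for 24 h (MyoF 48 h; BT 72 h for soluble read-outs or 6 d for IgG). Biomarkers were read by ELISA, cytotoxicity by SRB, PBMC viability and proliferation by Alamar Blue. Each well value was divided by the mean of 8 DMSO control wells on the same plate and log10 transformed; duplicate blinded samples were tested at 4 concentrations.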

[1] = compound: C=CC(=O)OCC(F)(F)C(F)(F)C(F)(F)COC(=O)C=C [1H,1H,5H,5H-Perfluoro-1,5-pentanediol diacrylate]; conditions: 2200 nM; in DMSO
Procedure: as §1

Hexafluoroamylene glycol = compound: OCC(F)(F)C(F)(F)C(F)(F)CO [Hexafluoroamylene glycol]; conditions: 2200 nM; in DMSO
Procedure: as §1

[2] = compound: OCCCC(F)(F)C(F)(F)C(F)(F)C(F)(F)C(F)(F)C(F)(F)C(F)(F)F [7:3 Fluorotelomer alcohol]; conditions: 2200 nM; in DMSO
Procedure: as §1

[3] = compound: O=C(O)C(F)(F)C(F)(F)C(F)(F)C(F)(F)C(F)(F)C(F)(F)C(F)(F)C(F)(F)C(F)(F)C(F)(F)C(F)(F)C(F)(F)C(F)(F)F [Perfluorotetradecanoic acid]; conditions: in DMSO
Procedure: as §1

[4] = compound: O=C(O)C=C(C(F)(F)F)C(F)(F)F [3,3-Bis(trifluoromethyl)-2-propenoic acid]; conditions: in DMSO
Procedure: as §1

[5] = compound: O=S(=O)(O)C(F)(F)C(F)(F)C(F)(F)C(F)(F)C(F)(F)C(F)(F)F [Perfluorohexanesulfonic acid]; conditions: 2200 nM; in DMSO
Procedure: as §1

[6] = compound: C=CC(=O)OCCC(F)(F)C(F)(F)C(F)(F)C(F)(F)F [2-(Perfluorobutyl)ethyl acrylate]; conditions: 2200 nM; in DMSO
Procedure: as §1

[7] = compound: FC(F)(I)C(F)(F)C(F)(F)C(F)(F)C(F)(F)C(F)(F)I [1,6-Diiodoperfluorohexane]; conditions: 2200 nM; in DMSO
Procedure: as §1

[8] = compound: O=S(=O)(O)CCC(F)(F)C(F)(F)C(F)(F)C(F)(F)F [4:2 Fluorotelomer sulfonic acid]; conditions: 2200 nM; in DMSO
Procedure: as §1

[9] = compound: FC(F)(F)C(F)(C(F)(F)F)C(F)(F)C(F)(F)CC1CO1 [3-(Perfluoro-3-methylbutyl)-1,2-propenoxide]; conditions: in DMSO
Procedure: as §1

[10] = compound: C=CC(=O)OCCC(F)(F)C(F)(F)C(F)(F)C(F)(F)C(F)(F)C(F)(F)C(F)(F)C(F)(F)F [8:2 Fluorotelomer acrylate]; conditions: 2200 nM; in DMSO
Procedure: as §1

[11] = compound: O=C(Cl)C(F)(F)C(F)(F)C(F)(F)C(=O)Cl [Hexafluoroglutaryl chloride]; conditions: 2200 nM; in DMSO
Procedure: as §1

| Test System | level (log10) (Perfluoro-1-iodohexane; 2200 nM) | level (log10) (Perfluoro-1-iodohexane; 6700 nM) | level (log10) (Perfluoro-1-iodohexane; 20000 nM) | level (log10) (Perfluoro-1-iodohexane; 60000 nM) | level (log10) [1] | level (log10) (Hexafluoroamylene glycol) | level (log10) [2] | level (log10) ([3]; 740 nM) | level (log10) ([3]; 2200 nM) | level (log10) ([4]; 2200 nM) | level (log10) ([4]; 6700 nM) | level (log10) ([4]; 20000 nM) | level (log10) ([4]; 60000 nM) | level (log10) [5] | level (log10) [6] | level (log10) [7] | level (log10) [8] | level (log10) ([9]; 740 nM) | level (log10) ([9]; 2200 nM) | level (log10) [10] | level (log10) [11] |
| --- | --- | --- | --- | --- | --- | --- | --- | --- | --- | --- | --- | --- | --- | --- | --- | --- | --- | --- | --- | --- | --- |
| MyoF:bFGF | -0.013 ± 0.0028 | -0.0085 ± 0.0064 | -0.002 ± 0.0042 | 0.0235 ± 0.036 | 0.008 ± 0.0085 | 0.007 ± 0.011 | -0.0005 ± 0.013 | 0.016 ± 0.014 | 0.015 ± 0.0028 | 0.005 ± 0.0042 | 0.0125 ± 0.0064 | 0.0075 ± 0.019 | 0.0325 ± 0.019 | 0.0105 ± 0.0092 | -0.0025 ± 0.011 | -0.042 ± 0.021 | 0.011 ± 0.023 | -0.0055 ± 0.03 | -0.003 ± 0.0042 | -0.0145 ± 0.0092 | 0.012 ± 0.0042 |
| KF3CT:CXCL8/IL-8 | -0.018 ± 0.021 | -0.0125 ± 0.016 | 0.003 ± 0.0014 | 0 ± 0.011 | 0.0045 ± 0.036 | 0.017 ± 0.021 | -0.0055 ± 0.00071 | 0.006 ± 0.03 | 0.0045 ± 0.019 | -0.004 ± 0.017 | -0.004 ± 0.0028 | 0.0025 ± 0.0092 | 0.0245 ± 0.016 | 0.0145 ± 0.0078 | -0.013 ± 0.0042 | 0.0065 ± 0.028 | 0.001 ± 0.0028 | 0.005 ± 0.018 | -0.0075 ± 0.00071 | -0.0035 ± 0.00071 | -0.022 ± 0.025 |
| BE3C:uPA | -0.0015 ± 0.025 | 0.0175 ± 0.015 | -0.0005 ± 0.0035 | 0.001 ± 0.0085 | -0.0105 ± 0.005 | 0.001 ± 0.021 | -0.0155 ± 0.03 | -0.001 ± 0.0057 | 0.0035 ± 0.026 | 0.001 ± 0.018 | -0.0205 ± 0.011 | -0.015 ± 0.0099 | -0.0045 ± 0.018 | 0.0055 ± 0.035 | -0.0025 ± 0.035 | -0.0185 ± 0.0078 | 0.005 ± 0.0042 | 0.0165 ± 0.0064 | 0.003 ± 0.0057 | 0.009 ± 0.033 | 0.0055 ± 0.0035 |
| KF3CT:CXCL10/IP-10 | -0.001 ± 0.0071 | 0.005 ± 0.0014 | 0.001 ± 0.0028 | 0.0065 ± 0.0092 | -0.002 ± 0.0099 | -0.0045 ± 0.0092 | -0.0005 ± 0.0064 | 0.0005 ± 0.0064 | -0.005 ± 0.0014 | -0.0155 ± 0.00071 | -0.01 ± 0.013 | -0.027 ± 0.0014 | -0.0225 ± 0.019 | -0.0055 ± 0.0078 | -0.0055 ± 0.0021 | -0.004 ± 0.017 | 0.002 ± 0.0014 | -0.0065 ± 0.015 | -0.0075 ± 0.0064 | -0.0075 ± 0.012 | -0.0055 ± 0.00071 |
| SAg:CXCL9/MIG | 0.005 ± 0.0028 | -0.0205 ± 0.028 | -0.005 ± 0.014 | 0.0045 ± 0.032 | -0.009 ± 0.02 | 0.0075 ± 0.0035 | -0.001 ± 0.016 | 0.0015 ± 0.005 | -0.003 ± 0.017 | -0.0025 ± 0.013 | -0.0065 ± 0.012 | -0.017 ± 0.0099 | 0.006 ± 0.0071 | 0.0035 ± 0.03 | -0.012 ± 0.017 | -0.002 ± 0.0014 | 0.0055 ± 0.0035 | -0.002 | 0.005 ± 0.0057 | -0.0035 ± 0.023 | 0.0045 ± 0.0035 |
| BE3C:EGFR | 0.022 ± 0.0099 | 0.0095 ± 0.00071 | -0.0055 ± 0.0021 | 0.0285 ± 0.013 | -0.009 ± 0.014 | 0.005 ± 0.011 | 0.017 ± 0.0071 | 0.017 ± 0.0028 | 0.002 ± 0.0014 | -0.0015 ± 0.023 | -0.015 ± 0.014 | -0.011 ± 0.0085 | -0.0015 ± 0.012 | -0.0015 ± 0.011 | -0.013 ± 0.0099 | -0.017 ± 0.0014 | -0.0085 ± 0.0092 | -0.013 ± 0.021 | -0.0105 ± 0.013 | 0.0025 ± 0.015 | 0.0195 ± 0.012 |
| KF3CT:CXCL9/MIG | 0 ± 0.0085 | -0.002 | -0.0125 ± 0.00071 | 0.0025 ± 0.012 | -0.006 ± 0.0057 | 0.004 ± 0.0085 | -0.0015 ± 0.0064 | -0.001 ± 0.0028 | 0.0015 ± 0.0035 | 0.008 ± 0.0085 | 0.0015 ± 0.005 | -0.003 ± 0.0085 | 0.006 ± 0.011 | 0.003 ± 0.014 | -0.014 ± 0.024 | -0.002 ± 0.0085 | 0.0075 ± 0.016 | -0.004 ± 0.028 | -0.0075 ± 0.0092 | 0.0045 ± 0.0035 | 0.0155 ± 0.00071 |
